PubChem BioAssay AID1224826, NIAID – 2016
This is an unselected part of about 17,000 reagents. About 1,110 of them (6.6%) count as active. 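Active means lowered or raised reporter signal; replicate intensities are raw and not normalised per plate.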 Unmarked entries are inactive. The numbers tell different reagents against one gene apart. Not all columns of the deposit are shown. No sequences are given here.

Purpose: 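Regulators of Tlr4 signalling leading to Tnf-alpha expression in macrophages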 (primary screen)
System: RAW264.7 G9 macrophages from mouse bearing reporters for p65 (GFP) and the Tnf promoter (mCherry)
Reagent: siRNA pool against mouse genes, 100 nM
Timing: 16 h of LPS stimulation, after 2 days of siRNA transfection
Conditions: bacterial lipopolysaccharide (Salmonella minnesota R595), 10 ng/ml
Detection: 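Imaged Tnf reporter mCherry in nuclei, minus background, normalised per plate to the median and expressed as robust z-scores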
Scale: Tnf reporter robust z-score: higher = stronger Tnf promoter reporter signal after LPS
Call rule: 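a well counts as active at a score of -1.3 or below (Tlr4 knock-down control median) or above 3 (raised signal); controls and wells holding fewer than 50 cells are excluded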
Meaning of the calls: active = Tnf reporter clearly lowered or raised; inactive = no clear change in Tnf reporter

Against Islr2 (GeneID 320563), the entry reads Tnf reporter robust z-score 1.05; fewer than 50 cells in well enough cells in well.
Mrtfb (GeneID 239719) #1 gave Tnf reporter robust z-score -0.5; fewer than 50 cells in well enough cells in well.
Against Mrtfb (GeneID 239719) #2, the values are Tnf reporter robust z-score 0.05; fewer than 50 cells in well enough cells in well.
Krtap5-4 (GeneID 50775) scored Tnf reporter robust z-score -0.63; fewer than 50 cells in well enough cells in well.
Silencing of Armh4 (GeneID 67419) came out at: fewer than 50 cells in well fewer than 50 cells per well; well left out of calls.
For Xylb (GeneID 102448) the deposit lists Tnf reporter robust z-score 0.89; fewer than 50 cells in well enough cells in well.
Syt9 (GeneID 60510) scored fewer than 50 cells in well fewer than 50 cells per well; well left out of calls.
Against Or4a47 (GeneID 258985) the deposit lists Tnf reporter robust z-score 0.8; fewer than 50 cells in well enough cells in well.
After knock-down of Mak16 (GeneID 67920), the record shows Tnf reporter robust z-score -0.58; fewer than 50 cells in well enough cells in well.
For Mospd3 (GeneID 68929) the deposit lists Tnf reporter robust z-score 2.06; fewer than 50 cells in well enough cells in well.
For Mageb2 (GeneID 17146) the deposit lists Tnf reporter robust z-score -1.13; fewer than 50 cells in well enough cells in well.
With knock-down of Cdkl3 (GeneID 213084), the record shows fewer than 50 cells in well fewer than 50 cells per well; well left out of calls.
Silencing of Zfp13 (GeneID 22654) came out at: Tnf reporter robust z-score 0.88; fewer than 50 cells in well enough cells in well.
With knock-down of Unc5b (GeneID 107449) the results were Tnf reporter robust z-score 0.26; fewer than 50 cells in well enough cells in well.
After knock-down of Dcdc2a (GeneID 195208) the results were Tnf reporter robust z-score 1.61; fewer than 50 cells in well enough cells in well.
Against Kcnk4 (GeneID 16528) the deposit lists Tnf reporter robust z-score 0.45; fewer than 50 cells in well enough cells in well.
With knock-down of Cep120 (GeneID 225523), the screen gave Tnf reporter robust z-score 0.78; fewer than 50 cells in well enough cells in well.
Or14a259 (GeneID 258609) scored Tnf reporter robust z-score -0.73; fewer than 50 cells in well enough cells in well.
A730020M07Rik (GeneID 100503044) showed Tnf reporter robust z-score 0.67; fewer than 50 cells in well enough cells in well.
After knock-down of Ndufb3 (GeneID 66495), the record shows Tnf reporter robust z-score -0.04; fewer than 50 cells in well enough cells in well.
Nup54 (GeneID 269113) showed fewer than 50 cells in well fewer than 50 cells per well; well left out of calls.
